Measured values taken from article doi:10.1101/2021.08.12.456111.

Molecular target: FimV domain of S. putrefaciens HubP (S. putrefaciens)
Assay: SEC

binding: binds
B1: MBP-GGDEF_(SoPdeB), GGDEF domain of S. oneidensis PdeB, wild type (domain or fragment, UniProt Q8EJM6 454-587)
chain: RSLAVCYLDLEQFKLINDSCGHTAGDRMLAMVARAIQSCLGPQELLARIGGDEFGLVICDRTALAVAQLLKQIIAQVSLQVLHDKNCNYKVGLSIGVAFGRAPYINAQELLKDADIACIAAKAKGTNQIHIYDD

No constants are given. Whether binding was seen depends on the method and setting. A result given as binding can be weak or reduced; the word gives no strength. Sequences can lack the tags named with a protein.
